According to the supplement of paper PMC8612539:
Converted amounts (≈) assume the structure as drawn. The source gives many values for each of these; only a part stands here.

Columns and labels:
[1] = test system: Pasteurella multocida; assay: minimum inhibitory concentration (MIC)
Protocol: (§1)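 Broth microdilution MIC (Sensititre BOPO7F bovine plate, CLSI methods) of 19 antimicrobials against field isolates of P. multocida, M. haemolytica, H. somni (deep nasopharyngeal swabs) and E. coli, Enterococcus spp. (rectal swabs) from weaned dairy heifers. Incubation 16-24 h at 35 C. MIC is the lowest concentration preventing visible growth. Values with <= or > lie at the tested range limits. Trimethoprim-sulfamethoxazole is given as the trimethoprim component of a 1:19 mixture.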

[2] = test system: Mannheimia haemolytica; assay: minimum inhibitory concentration (MIC)
Protocol: as §1

CC[C@H]1OC(=O)C[C@@H](O)[C@H](C)[C@@H](O[C@@H]2O[C@H](C)[C@@H](O)[C@H](N(C)C)[C@H]2O)[C@@H](CCN2C[C@H](C)C[C@H](C)C2)C[C@@H](C)C(=O)/C=C/C(C)=C/[C@@H]1CO[C@@H]1O[C@H](C)[C@@H](O)[C@@H](OC)[C@H]1OC [Tilmicosin]
minimum inhibitory concentration [µg/mL]
Settings	[1]	[2]
isolate (source animal id): 3	–	4 (≈ 4.6 µM)
isolate (source animal id): 30	> 16	–
isolate (source animal id): 34	> 16	–
isolate (source animal id): 36	> 16	–
isolate (source animal id): 37	> 16	–
isolate (source animal id): 46	8 (≈ 9.2 µM)	–
isolate (source animal id): 48	> 16	–
isolate (source animal id): 49	> 16	–
isolate (source animal id): 54	> 16	–
isolate (source animal id): 55	> 16	–
isolate (source animal id): 58	4 (≈ 4.6 µM)	–
isolate (source animal id): 60	> 16	> 16
isolate (source animal id): 61	> 16	> 16
isolate (source animal id): 63	> 16	–
isolate (source animal id): 64	4 (≈ 4.6 µM)	4 (≈ 4.6 µM)
isolate (source animal id): 65	> 16	> 16
isolate (source animal id): 66	> 16	> 16
isolate (source animal id): 67	> 16	> 16
isolate (source animal id): 68	–	4 (≈ 4.6 µM)
isolate (source animal id): 69	> 16	–
isolate (source animal id): 70	–	> 16
isolate (source animal id): 72	–	4 (≈ 4.6 µM)
isolate (source animal id): 73	> 16	–
isolate (source animal id): 74	–	> 16
isolate (source animal id): 75	> 16	–
isolate (source animal id): 76	> 16	4 (≈ 4.6 µM)
isolate (source animal id): 77	> 16	–
isolate (source animal id): 78	> 16	–
isolate (source animal id): 80	> 16	16 (≈ 18.4 µM)
isolate (source animal id): 82	> 16	> 16
isolate (source animal id): 83	> 16	8 (≈ 9.2 µM)
isolate (source animal id): 84	–	> 16
isolate (source animal id): 85	–	16 (≈ 18.4 µM)
isolate (source animal id): 86	–	16 (≈ 18.4 µM)
isolate (source animal id): 87	–	16 (≈ 18.4 µM)
isolate (source animal id): 88	> 16	–
isolate (source animal id): 92	> 16	–
isolate (source animal id): 94	> 16	–
isolate (source animal id): 318	> 16	–
isolate (source animal id): 319	> 16	–
isolate (source animal id): 320	> 16	–
isolate (source animal id): 321	> 16	–
isolate (source animal id): 322	> 16	–
isolate (source animal id): 324	> 16	–
isolate (source animal id): 325	> 16	–
isolate (source animal id): 328	> 16	–
isolate (source animal id): 330	> 16	–
isolate (source animal id): 331	8 (≈ 9.2 µM)	–
isolate (source animal id): 333	> 16	–
isolate (source animal id): 336	> 16	–
isolate (source animal id): 337	> 16	–
isolate (source animal id): 339	> 16	–
isolate (source animal id): 340	> 16	–
isolate (source animal id): 341	> 16	–

CN1C[C@@H]2C[C@H]1CN2c1cc2c(cc1F)c(=O)c(C(=O)O)cn2C1CC1 [Danofloxacin]
minimum inhibitory concentration [µg/mL]
Settings	[1]	[2]
isolate (source animal id): 3	–	0.5 (≈ 1.4 µM)
isolate (source animal id): 30	1 (≈ 2.8 µM)	–
isolate (source animal id): 34	> 1	–
isolate (source animal id): 36	> 1	–
isolate (source animal id): 37	> 1	–
isolate (source animal id): 46	≤ 0.12	–
isolate (source animal id): 48	> 1	–
isolate (source animal id): 49	> 1	–
isolate (source animal id): 54	> 1	–
isolate (source animal id): 55	> 1	–
isolate (source animal id): 58	> 1	–
isolate (source animal id): 60	> 1	0.5 (≈ 1.4 µM)
isolate (source animal id): 61	> 1	> 1
isolate (source animal id): 63	> 1	–
isolate (source animal id): 64	> 1	0.25 (≈ 0.7 µM)
isolate (source animal id): 65	> 1	> 1
isolate (source animal id): 66	> 1	0.5 (≈ 1.4 µM)
isolate (source animal id): 67	> 1	> 1
isolate (source animal id): 68	–	0.5 (≈ 1.4 µM)
isolate (source animal id): 69	> 1	–
isolate (source animal id): 70	–	> 1
isolate (source animal id): 72	–	0.5 (≈ 1.4 µM)
isolate (source animal id): 73	1 (≈ 2.8 µM)	–
isolate (source animal id): 74	–	> 1
isolate (source animal id): 75	> 1	–
isolate (source animal id): 76	> 1	0.5 (≈ 1.4 µM)
isolate (source animal id): 77	1 (≈ 2.8 µM)	–
isolate (source animal id): 78	> 1	–
isolate (source animal id): 80	> 1	0.5 (≈ 1.4 µM)
isolate (source animal id): 82	> 1	> 1
isolate (source animal id): 83	> 1	≤ 0.12
isolate (source animal id): 84	–	0.5 (≈ 1.4 µM)
isolate (source animal id): 85	–	> 1
isolate (source animal id): 86	–	> 1
isolate (source animal id): 87	–	> 1
isolate (source animal id): 88	≤ 0.12	–
isolate (source animal id): 92	1 (≈ 2.8 µM)	–
isolate (source animal id): 94	> 1	–
isolate (source animal id): 318	≤ 0.12	–
isolate (source animal id): 319	≤ 0.12	–
isolate (source animal id): 320	> 1	–
isolate (source animal id): 321	> 1	–
isolate (source animal id): 322	> 1	–
isolate (source animal id): 324	> 1	–
isolate (source animal id): 325	> 1	–
isolate (source animal id): 328	> 1	–
isolate (source animal id): 330	> 1	–
isolate (source animal id): 331	≤ 0.12	–
isolate (source animal id): 333	≤ 0.12	–
isolate (source animal id): 336	> 1	–
isolate (source animal id): 337	> 1	–
isolate (source animal id): 339	> 1	–
isolate (source animal id): 340	≤ 0.12	–
isolate (source animal id): 341	≤ 0.12	–
